Results are given in words; binding and its absence hold for the method and conditions named. In cells and extracts the contact can be indirect. A yes stands for co-enrichment or nearness to the bait. Other partners may have been found. Sequences can lack the tags named with a protein.
T1: Sgt2-TEV–GFP (S. cerevisiae) (UniProt Q12118)
T1 sequence: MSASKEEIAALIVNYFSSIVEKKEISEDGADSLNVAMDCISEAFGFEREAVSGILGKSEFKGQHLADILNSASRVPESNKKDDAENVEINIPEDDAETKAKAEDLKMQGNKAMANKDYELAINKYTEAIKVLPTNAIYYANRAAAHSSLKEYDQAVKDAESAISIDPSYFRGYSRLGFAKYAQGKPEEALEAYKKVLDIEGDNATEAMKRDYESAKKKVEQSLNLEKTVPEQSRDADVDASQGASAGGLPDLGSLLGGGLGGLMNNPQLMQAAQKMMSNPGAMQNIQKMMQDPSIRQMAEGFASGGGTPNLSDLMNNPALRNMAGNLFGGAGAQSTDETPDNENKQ

Sequences of proteins named here, by UniProt entry; tags and fusion partners are left off.
UniProt P22202: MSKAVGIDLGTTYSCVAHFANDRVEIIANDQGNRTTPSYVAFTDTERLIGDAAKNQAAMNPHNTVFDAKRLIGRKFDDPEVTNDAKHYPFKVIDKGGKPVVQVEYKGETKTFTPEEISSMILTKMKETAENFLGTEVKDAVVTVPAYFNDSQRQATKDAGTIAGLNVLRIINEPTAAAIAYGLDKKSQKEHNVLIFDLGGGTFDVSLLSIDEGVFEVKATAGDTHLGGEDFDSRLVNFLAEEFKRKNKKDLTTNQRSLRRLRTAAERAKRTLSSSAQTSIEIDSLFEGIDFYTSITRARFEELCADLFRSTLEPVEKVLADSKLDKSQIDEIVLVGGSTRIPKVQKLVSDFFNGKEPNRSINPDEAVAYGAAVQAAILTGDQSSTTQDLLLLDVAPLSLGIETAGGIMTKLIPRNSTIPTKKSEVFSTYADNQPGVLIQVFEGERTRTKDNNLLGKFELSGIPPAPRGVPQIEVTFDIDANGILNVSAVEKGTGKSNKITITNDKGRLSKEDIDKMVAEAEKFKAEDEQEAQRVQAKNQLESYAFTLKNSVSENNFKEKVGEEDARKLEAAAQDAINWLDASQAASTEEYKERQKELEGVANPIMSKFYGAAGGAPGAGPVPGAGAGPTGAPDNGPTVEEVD
UniProt P10591: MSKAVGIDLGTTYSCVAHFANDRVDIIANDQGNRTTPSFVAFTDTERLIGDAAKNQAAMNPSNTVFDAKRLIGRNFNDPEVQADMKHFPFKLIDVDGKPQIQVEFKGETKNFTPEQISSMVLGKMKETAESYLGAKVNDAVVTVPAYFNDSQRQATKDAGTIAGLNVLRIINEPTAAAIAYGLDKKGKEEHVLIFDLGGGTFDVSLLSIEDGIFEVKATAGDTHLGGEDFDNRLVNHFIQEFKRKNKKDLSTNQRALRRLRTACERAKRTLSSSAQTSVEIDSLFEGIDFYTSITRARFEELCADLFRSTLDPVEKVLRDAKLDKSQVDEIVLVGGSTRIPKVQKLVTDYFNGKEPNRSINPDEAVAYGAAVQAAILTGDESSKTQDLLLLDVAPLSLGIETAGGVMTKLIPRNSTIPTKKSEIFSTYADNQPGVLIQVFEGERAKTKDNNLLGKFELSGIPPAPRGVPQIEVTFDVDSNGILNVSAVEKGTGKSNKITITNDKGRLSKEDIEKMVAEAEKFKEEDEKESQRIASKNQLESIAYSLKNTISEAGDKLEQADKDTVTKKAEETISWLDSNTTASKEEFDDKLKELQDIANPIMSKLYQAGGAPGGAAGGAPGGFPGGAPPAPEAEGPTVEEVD

B1: Get5 (protein, UniProt Q12285 1-212)
chain: MSTSASGPEHEFVSKFLTLATLTEPKLPKSYTKPLKDVTNLGVPLPTLKYKYKQNRAKKLKLHQDQQGQDNAAVHLTLKKIQAPKFSIEHDFSPSDTILQIKQHLISEEKASHISEIKLLLKGKVLHDNLFLSDLKVTPANSTITVMIKPNPTISKEPEAEKSTNSPAPAPPQELTVPWDDIEALLKNNFENDQAAVRQVMERLQKGWSLAK
B2: Get3 (protein, UniProt Q12154 1-354)
chain: MDLTVEPNLHSLITSTTHKWIFVGGKGGVGKTTSSCSIAIQMALSQPNKQFLLISTDPAHNLSDAFGEKFGKDARKVTGMNNLSCMEIDPSAALKDMNDMAVSRANNNGSDGQGDDLGSLLQGGALADLTGSIPGIDEALSFMEVMKHIKRQEQGEGETFDTVIFDTAPTGHTLRFLQLPNTLSKLLEKFGEITNKLGPMLNSFMGAGNVDISGKLNELKANVETIRQQFTDPDLTTFVCVCISEFLSLYETERLIQELISYDMDVNSIIVNQLLFAENDQEHNCKRCQARWKMQKKYLDQIDELYEDFHVVKMPLCAGEIRGLNNLTKFSQFLNKEYNPITDGKVIYELEDKE
B3: Sis1 (protein, UniProt P25294 1-352)
chain: MVKETKLYDLLGVSPSANEQELKKGYRKAALKYHPDKPTGDTEKFKEISEAFEILNDPQKREIYDQYGLEAARSGGPSFGPGGPGGAGGAGGFPGGAGGFSGGHAFSNEDAFNIFSQFFGGSSPFGGADDSGFSFSSYPSGGGAGMGGMPGGMGGMHGGMGGMPGGFRSASSSPTYPEEETVQVNLPVSLEDLFVGKKKSFKIGRKGPHGASEKTQIDIQLKPGWKAGTKITYKNQGDYNPQTGRRKTLQFVIQEKSHPNFKRDGDDLIYTLPLSFKESLLGFSKTIQTIDGRTLPLSRVQPVQPSQTSTYPGQGMPTPKNPSQRGNLIVKYKVDYPISLNDAQKRAIDENF
B4: Paa1 (enzyme, UniProt Q12447 1-191)
chain: MASSSSTLPLHMYIRPLIIEDLKQILNLESQGFPPNERASEEIISFRLINCPELCSGLFIREIEGKEVKKETLIGHIMGTKIPHEYITIESMGKLQVESSNHIGIHSVVIKPEYQKKNLATLLLTDYIQKLSNQEIGNKIVLIAHEPLIPFYERVGFKIIAENTNVAKDKNFAEQKWIDMERELIKEEYDN
B5: Sec53 (enzyme, UniProt P07283 1-254)
chain: MSIAEFAYKEKPETLVLFDVDGTLTPARLTVSEEVRKTLAKLRNKCCIGFVGGSDLSKQLEQLGPNVLDEFDYSFSENGLTAYRLGKELASQSFINWLGEEKYNKLAVFILRYLSEIDLPKRRGTFLEFRNGMINVSPIGRNASTEERNEFERYDKEHQIRAKFVEALKKEFPDYGLTFSIGGQISFDVFPAGWDKTYCLQHVEKDGFKEIHFFGDKTMVGGNDYEIFVDERTIGHSVQSPDDTVKILTELFNL
B6: Get4 (protein, UniProt Q12125 1-312)
chain: MVPAESNAVQAKLAKTLQRFENKIKAGDYYEAHQTLRTIANRYVRSKSYEHAIELISQGALSFLKAKQGGSGTDLIFYLLEVYDLAEVKVDDISVARLVRLIAELDPSEPNLKDVITGMNNWSIKFSEYKFGDPYLHNTIGSKLLEGDFVYEAERYFMLGTHDSMIKYVDLLWDWLCQVDDIEDSTVAEFFSRLVFNYLFISNISFAHESKDIFLERFIEKFHPKYEKIDKNGYEIVFFEDYSDLNFLQLLLITCQTKDKSYFLNLKNHYLDFSQAYKSELEFLGQEYFNIVAPKQTNFLQDMMSGFLGGSK
B7: Sse2 (protein, UniProt P32590 1-693)
chain: MSTPFGLDLGNNNSVLAVARNRGIDVVVNEVSNRSTPSLVGFGPRNRYLGESGKTKQTSNVKNTVENLKRIIGLKFKDPEFDIENKFFTSKLVQLKNGKVGVEVEFGGKTHVFSATQLTAMFIDKVKHTVQEETKSSITDVCLAVPVWYSEEQRYNIADAARIAGLNPVRIVNDVTAAAVSYGVFKNDLPGPEEKPRIIGLVDIGHSTYTCSIMAFRKGEMKVLGTAYDKHFGGRDFDRAITEHFADQFKDKYKIDIRKNPKAYNRILIAAEKLKKVLSANTTAPFSVESVMDDIDVSSQLSREELEELVEPLLKRVTYPITNALAQAKLTVNDIDFVEIIGGTTRIPVLKKSISDVFGKPLSSTLNQDEAVAKGAAFICAIHSPTLRVRPFKFEDIDPYSVSYTWDKQVDDEDRLEVFPANSSYPSTKLITLHRTGDFSMKAVYTHPSKLPKGTSTTIAKWSFTGVKVPKDQDFIPVKVKLRCDPSGLHIIENAYTTEDITVQEPVPLPEDAPEDAEPQFKEVTKTIKKDVLGMTAKTFALNPVELNDLIEKENELRNQDKLVAETEDRKNALEEYIYTLRAKLDDEYSDFASDAEKEKLKNMLATTENWLYGDGDDSTKAKYIAKYEELASLGNIIRGRYLAKEEEKRQALRANQETSKMNDIAEKLAEQRRARAASDDSDDNNDENMDLD
B8: Sti1 (protein, UniProt P15705 1-589)
chain: MSLTADEYKQQGNAAFTAKDYDKAIELFTKAIEVSETPNHVLYSNRSACYTSLKKFSDALNDANECVKINPSWSKGYNRLGAAHLGLGDLDEAESNYKKALELDASNKAAKEGLDQVHRTQQARQAQPDLGLTQLFADPNLIENLKKNPKTSEMMKDPQLVAKLIGYKQNPQAIGQDLFTDPRLMTIMATLMGVDLNMDDINQSNSMPKEPETSKSTEQKKDAEPQSDSTTSKENSSKAPQKEESKESEPMEVDEDDSKIEADKEKAEGNKFYKARQFDEAIEHYNKAWELHKDITYLNNRAAAEYEKGEYETAISTLNDAVEQGREMRADYKVISKSFARIGNAYHKLGDLKKTIEYYQKSLTEHRTADILTKLRNAEKELKKAEAEAYVNPEKAEEARLEGKEYFTKSDWPNAVKAYTEMIKRAPEDARGYSNRAAALAKLMSFPEAIADCNKAIEKDPNFVRAYIRKATAQIAVKEYASALETLDAARTKDAEVNNGSSAREIDQLYYKASQQRFQPGTSNETPEETYQRAMKDPEVAAIMQDPVMQSILQQAQQNPAALQEHMKNPEVFKKIQTLIAAGIIRTGR
B9: Ybr137w (protein, UniProt P38276 1-179)
chain: MVVLDKKLLERLTSRKVPLEELEDMEKRCFLSTFTYQDAFDLGTYIRNAVKENFPEKPVAIDISLPNGHCLFRTVTYGGSALDNDFWIQRKKKTALRFGHSSFYMGCKKGDKTPEEKFFVDSKEYAFHGGAVLIQSERSDYPYACLTISGLKQEEDHLMAVSSLIAFANESLEEDLNLD

biological target: T1, Sgt2-TEV–GFP (S. cerevisiae); assay: affinity purification with mass spectrometry; Δsgt2 cells expressing Sgt2-TEV–GFP, glucose starved (4 h by results and legend); lysis in 50 mM Tris-HCl pH 7.4, 100 mM potassium acetate, 2 mM magnesium acetate, 0.5 mM DTT, 0.5% IGEPAL; GET body-enriched fraction by differential centrifugation; capture on GFP-Trap magnetic agarose beads at 4°C, elution by TEV protease; compared with Sgt2ΔTPR-TEV–GFP as control

| binding | Molecule |
| --- | --- |
| binds | Ssa4 (from UniProt P22202 1-642) |
| binds | Ssa1 (from UniProt P10591 1-642) |
| binds | B1 |
| binds | B2 |
| binds | B3 |
| binds | B4 |
| binds | B5 |
| binds | B6 |
| binds | B7 |
| binds | B8 |
| binds | B9 |

Reference: article PMC11959614
